Measurements published in patent US10787446B2 (GENENTECH, INC., priority 2015, dated 2020).
The structures given here were assigned with low confidence; some may be wrong.

Chains of the proteins cited; added tags and fusions are not shown. Residues count along the entry.
UniProt Q15858, whole entry: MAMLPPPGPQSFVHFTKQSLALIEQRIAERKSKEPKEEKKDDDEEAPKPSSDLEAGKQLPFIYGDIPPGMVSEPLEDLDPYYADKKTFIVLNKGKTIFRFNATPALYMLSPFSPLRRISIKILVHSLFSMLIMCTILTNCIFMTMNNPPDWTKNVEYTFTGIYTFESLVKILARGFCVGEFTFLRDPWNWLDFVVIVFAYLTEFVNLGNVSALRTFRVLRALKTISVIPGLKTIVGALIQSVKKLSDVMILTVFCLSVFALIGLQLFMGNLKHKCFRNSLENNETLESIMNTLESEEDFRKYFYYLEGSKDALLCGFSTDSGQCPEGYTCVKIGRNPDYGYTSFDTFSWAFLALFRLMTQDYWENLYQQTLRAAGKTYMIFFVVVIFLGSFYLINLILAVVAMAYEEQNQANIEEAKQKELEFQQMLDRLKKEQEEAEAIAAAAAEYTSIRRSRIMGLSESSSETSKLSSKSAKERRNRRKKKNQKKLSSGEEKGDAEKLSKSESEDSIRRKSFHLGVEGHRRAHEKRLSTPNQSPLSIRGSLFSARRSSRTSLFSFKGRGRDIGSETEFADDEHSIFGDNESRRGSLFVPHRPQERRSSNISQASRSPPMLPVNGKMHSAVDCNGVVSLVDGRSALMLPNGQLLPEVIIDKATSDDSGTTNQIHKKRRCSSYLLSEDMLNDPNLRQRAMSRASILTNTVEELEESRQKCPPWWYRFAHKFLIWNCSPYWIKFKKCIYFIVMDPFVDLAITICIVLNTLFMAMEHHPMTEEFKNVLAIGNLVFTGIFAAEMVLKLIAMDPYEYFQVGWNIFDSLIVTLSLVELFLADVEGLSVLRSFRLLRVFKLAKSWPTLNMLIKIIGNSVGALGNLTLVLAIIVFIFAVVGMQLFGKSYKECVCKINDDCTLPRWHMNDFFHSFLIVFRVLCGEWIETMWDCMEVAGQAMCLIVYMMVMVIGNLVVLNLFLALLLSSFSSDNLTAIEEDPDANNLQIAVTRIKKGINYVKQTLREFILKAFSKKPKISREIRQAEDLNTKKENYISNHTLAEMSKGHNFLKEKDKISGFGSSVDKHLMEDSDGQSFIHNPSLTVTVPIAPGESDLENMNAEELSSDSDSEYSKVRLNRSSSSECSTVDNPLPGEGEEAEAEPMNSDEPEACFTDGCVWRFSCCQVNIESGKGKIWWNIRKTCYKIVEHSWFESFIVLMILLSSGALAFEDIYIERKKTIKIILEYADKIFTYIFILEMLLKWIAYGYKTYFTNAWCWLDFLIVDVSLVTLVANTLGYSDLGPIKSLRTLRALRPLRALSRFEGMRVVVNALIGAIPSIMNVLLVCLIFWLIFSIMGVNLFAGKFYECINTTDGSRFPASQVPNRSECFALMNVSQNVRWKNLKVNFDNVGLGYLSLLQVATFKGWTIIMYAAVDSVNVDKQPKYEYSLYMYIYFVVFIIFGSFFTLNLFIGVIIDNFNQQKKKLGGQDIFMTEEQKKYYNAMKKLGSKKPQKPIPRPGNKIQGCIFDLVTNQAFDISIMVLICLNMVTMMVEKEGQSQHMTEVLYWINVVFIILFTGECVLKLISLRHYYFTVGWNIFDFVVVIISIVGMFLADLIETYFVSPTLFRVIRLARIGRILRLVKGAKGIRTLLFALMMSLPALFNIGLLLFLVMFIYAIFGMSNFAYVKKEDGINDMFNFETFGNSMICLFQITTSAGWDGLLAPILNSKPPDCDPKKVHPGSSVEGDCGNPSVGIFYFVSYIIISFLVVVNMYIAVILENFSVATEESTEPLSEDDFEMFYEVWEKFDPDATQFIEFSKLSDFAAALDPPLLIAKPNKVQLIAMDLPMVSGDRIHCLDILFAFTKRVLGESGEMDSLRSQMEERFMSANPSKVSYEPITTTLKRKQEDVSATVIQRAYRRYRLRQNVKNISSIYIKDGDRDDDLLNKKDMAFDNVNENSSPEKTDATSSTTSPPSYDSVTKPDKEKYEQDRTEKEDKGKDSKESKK
UniProt Q07699, 19-218 partner limits assumed: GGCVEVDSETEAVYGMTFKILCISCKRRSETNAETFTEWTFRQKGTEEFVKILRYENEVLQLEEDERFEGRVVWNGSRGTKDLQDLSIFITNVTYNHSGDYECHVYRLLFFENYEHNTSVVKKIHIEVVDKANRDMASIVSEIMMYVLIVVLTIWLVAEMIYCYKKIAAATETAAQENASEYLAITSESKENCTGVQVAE

Molecular target: hNav1.7 and the β1 subunit (Homo sapiens, UniProt Q15858)
Experiment: Tritiated compound competitive binding to membranes from cells heterologously expressing hNav1.7 and the β1 subunit (LBA)
Conditions: read-out: Nav1.7 (LBA); competition with 100 pM [3H]compound, 18 h, room temperature; IC50 by 4 parameter logistic model

With `Cn1nccc1[C@H]1C[C@@H](C(F)(F)F)CCN1[C@H]1CCOc2cc(S(=O)(=O)Nc3nccs3)c(F)cc21` (single isomer, unassigned) the IC50 was 1.55 nM.
